Measurements published in US20240423907A1, “Improved Nasal Administration of Pharmaceutical Formulations” (Cyrano Therapeutics, Inc., priority 2022, published 2024).
At least one structure is not confirmed: it was looked up by name or label, or the drawing left a doubt.

Test system: subject diagnosed with noncancerous nasal polyps
Assay: Treatment of nasal polyps in a subject
Type: in vivo
Conditions: nasal spray device described herein, effective dose 2× daily in each naris

CCCC1O[C@@H]2C[C@H]3[C@@H]4CCC5=CC(=O)C=C[C@]5(C)[C@H]4[C@@H](O)C[C@]3(C)[C@]2(C(=O)CO)O1 (stereo partly shown) [budesonide]
size of nasal polyps after administration: reduced in size
